# The other results are listed elsewhere or left out.
# By UniProt entry, the sequences of proteins in these tests, tags left out. Where a name states a change or a piece, a line headed by the entry shows the natural chain unless it says otherwise.
# UniProt Q12768: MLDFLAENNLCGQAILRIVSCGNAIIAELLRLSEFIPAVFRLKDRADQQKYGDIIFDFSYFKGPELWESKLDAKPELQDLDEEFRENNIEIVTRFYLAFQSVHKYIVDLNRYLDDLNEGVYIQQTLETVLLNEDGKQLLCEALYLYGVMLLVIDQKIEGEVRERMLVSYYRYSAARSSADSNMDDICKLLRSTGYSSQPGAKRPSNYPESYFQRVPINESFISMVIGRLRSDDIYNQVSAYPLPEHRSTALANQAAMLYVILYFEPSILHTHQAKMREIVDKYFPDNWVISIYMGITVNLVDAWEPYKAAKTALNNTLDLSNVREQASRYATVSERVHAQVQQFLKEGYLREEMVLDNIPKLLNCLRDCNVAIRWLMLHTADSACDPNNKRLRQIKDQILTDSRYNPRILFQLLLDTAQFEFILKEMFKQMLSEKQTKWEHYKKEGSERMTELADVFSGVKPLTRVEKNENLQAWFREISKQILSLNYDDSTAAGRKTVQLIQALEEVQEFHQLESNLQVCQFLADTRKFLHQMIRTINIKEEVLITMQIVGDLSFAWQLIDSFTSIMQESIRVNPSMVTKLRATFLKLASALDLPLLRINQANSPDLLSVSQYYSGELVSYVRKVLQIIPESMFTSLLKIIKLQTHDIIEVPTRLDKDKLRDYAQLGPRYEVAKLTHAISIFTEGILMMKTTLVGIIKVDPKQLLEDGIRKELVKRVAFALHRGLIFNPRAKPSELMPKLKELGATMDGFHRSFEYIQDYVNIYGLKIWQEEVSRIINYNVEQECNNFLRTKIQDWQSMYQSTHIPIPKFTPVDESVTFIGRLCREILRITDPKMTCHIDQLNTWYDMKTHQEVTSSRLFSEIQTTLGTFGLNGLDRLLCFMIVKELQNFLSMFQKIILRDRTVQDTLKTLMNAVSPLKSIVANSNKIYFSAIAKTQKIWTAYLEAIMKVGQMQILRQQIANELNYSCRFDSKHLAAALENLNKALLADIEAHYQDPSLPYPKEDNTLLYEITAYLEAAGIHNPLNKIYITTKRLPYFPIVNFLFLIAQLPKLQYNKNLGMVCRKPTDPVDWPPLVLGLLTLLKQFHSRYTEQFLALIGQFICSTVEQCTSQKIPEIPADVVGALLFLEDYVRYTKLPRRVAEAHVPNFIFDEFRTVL
# UniProt Q8IWB7: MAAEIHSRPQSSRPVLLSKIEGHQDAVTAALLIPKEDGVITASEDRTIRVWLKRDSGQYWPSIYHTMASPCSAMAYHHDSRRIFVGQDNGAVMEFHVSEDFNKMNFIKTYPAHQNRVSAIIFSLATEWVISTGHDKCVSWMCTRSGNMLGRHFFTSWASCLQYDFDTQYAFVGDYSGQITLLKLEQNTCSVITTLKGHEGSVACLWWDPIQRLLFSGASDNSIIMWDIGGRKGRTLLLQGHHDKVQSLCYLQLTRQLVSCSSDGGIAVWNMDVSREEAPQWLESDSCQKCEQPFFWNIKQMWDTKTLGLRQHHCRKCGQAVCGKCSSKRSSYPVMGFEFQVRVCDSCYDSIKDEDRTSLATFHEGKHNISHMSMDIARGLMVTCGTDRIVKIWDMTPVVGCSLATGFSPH
# UniProt O75717: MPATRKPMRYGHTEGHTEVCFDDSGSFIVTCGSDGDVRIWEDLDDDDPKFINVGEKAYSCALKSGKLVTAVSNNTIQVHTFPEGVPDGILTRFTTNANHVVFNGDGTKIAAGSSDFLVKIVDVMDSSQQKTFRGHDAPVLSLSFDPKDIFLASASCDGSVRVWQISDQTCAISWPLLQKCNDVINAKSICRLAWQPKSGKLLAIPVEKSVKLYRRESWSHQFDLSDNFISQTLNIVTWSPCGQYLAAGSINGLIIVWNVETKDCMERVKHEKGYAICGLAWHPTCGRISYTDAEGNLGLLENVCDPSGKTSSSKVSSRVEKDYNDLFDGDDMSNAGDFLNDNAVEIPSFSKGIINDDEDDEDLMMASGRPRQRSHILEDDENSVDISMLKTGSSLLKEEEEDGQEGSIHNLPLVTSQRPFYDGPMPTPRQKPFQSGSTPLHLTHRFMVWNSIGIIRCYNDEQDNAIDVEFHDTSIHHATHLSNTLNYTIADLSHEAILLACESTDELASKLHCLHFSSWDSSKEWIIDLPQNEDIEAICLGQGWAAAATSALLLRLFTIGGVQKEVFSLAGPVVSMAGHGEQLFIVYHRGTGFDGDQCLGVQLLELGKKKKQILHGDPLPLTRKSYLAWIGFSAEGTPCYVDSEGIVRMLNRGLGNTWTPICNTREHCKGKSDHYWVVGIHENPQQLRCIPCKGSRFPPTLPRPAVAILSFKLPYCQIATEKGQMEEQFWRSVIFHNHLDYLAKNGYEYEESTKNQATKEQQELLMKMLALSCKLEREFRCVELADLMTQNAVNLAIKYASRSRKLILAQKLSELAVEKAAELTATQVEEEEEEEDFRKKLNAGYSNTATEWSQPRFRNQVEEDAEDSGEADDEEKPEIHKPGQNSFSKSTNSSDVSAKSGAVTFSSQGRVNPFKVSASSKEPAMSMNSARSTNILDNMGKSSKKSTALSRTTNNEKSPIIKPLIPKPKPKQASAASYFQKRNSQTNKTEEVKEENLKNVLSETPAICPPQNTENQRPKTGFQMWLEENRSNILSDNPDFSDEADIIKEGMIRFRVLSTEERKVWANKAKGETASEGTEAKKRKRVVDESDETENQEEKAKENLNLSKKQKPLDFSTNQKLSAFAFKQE
# UniProt O75083: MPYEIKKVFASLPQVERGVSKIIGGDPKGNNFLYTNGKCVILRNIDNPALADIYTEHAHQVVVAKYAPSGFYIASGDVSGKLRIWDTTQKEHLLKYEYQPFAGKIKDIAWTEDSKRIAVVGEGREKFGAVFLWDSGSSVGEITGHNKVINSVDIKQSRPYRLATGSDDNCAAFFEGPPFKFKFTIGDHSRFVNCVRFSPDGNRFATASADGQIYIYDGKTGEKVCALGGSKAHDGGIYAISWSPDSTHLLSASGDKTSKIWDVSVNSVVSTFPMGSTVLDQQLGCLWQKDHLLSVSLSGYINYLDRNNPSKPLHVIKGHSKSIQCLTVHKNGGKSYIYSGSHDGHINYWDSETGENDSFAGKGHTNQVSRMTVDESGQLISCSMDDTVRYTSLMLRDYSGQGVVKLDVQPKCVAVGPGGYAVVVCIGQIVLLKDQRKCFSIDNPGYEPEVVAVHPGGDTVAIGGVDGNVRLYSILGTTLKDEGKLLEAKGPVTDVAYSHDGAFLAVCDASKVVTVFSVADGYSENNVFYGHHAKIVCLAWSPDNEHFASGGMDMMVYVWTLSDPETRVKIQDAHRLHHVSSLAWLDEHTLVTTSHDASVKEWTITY
# UniProt Q15061: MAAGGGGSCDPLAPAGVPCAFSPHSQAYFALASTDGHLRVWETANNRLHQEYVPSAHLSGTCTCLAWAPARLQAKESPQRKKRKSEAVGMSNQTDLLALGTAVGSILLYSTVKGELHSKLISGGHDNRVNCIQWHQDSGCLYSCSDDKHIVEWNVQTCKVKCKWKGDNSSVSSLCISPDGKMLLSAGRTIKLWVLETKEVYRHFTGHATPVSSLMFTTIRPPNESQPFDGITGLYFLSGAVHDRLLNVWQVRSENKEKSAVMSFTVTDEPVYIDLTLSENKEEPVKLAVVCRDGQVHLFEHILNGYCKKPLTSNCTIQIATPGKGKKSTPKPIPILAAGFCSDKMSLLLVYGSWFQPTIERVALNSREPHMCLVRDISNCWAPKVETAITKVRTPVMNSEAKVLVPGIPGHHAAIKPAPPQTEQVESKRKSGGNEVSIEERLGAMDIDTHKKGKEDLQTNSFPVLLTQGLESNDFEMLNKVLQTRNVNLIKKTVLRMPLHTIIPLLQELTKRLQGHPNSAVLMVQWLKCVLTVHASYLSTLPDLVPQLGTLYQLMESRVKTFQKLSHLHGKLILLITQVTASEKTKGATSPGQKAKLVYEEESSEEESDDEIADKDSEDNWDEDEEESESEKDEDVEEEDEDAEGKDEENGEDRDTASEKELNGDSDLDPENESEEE
# UniProt Q9NNW5: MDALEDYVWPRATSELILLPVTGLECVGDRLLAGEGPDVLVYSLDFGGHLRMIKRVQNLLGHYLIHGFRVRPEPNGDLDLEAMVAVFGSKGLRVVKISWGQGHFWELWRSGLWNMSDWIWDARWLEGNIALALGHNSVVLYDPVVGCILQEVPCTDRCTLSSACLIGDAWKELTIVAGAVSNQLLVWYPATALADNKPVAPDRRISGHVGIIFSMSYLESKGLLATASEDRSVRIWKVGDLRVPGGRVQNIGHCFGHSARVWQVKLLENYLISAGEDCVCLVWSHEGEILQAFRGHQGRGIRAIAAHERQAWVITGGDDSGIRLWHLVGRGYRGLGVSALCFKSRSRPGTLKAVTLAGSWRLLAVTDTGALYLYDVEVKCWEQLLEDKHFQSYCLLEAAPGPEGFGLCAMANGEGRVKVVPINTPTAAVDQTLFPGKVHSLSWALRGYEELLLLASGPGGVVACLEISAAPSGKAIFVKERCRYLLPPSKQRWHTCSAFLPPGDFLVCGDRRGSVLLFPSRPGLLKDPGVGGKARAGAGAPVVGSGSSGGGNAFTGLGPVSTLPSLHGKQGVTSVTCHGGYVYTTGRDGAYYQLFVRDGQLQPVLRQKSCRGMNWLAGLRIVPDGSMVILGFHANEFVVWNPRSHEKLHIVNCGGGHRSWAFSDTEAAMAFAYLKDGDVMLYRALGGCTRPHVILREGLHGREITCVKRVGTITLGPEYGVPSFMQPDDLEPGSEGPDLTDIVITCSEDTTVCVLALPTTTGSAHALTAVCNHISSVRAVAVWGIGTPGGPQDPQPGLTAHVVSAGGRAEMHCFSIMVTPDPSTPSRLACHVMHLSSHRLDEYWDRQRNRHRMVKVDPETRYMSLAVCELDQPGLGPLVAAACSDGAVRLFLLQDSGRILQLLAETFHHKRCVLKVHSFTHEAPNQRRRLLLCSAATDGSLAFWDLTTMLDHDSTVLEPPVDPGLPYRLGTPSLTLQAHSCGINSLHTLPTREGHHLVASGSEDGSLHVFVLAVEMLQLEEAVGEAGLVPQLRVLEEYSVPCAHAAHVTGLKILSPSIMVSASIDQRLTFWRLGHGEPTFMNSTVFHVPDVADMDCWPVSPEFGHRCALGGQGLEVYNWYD
# UniProt Q9BV38: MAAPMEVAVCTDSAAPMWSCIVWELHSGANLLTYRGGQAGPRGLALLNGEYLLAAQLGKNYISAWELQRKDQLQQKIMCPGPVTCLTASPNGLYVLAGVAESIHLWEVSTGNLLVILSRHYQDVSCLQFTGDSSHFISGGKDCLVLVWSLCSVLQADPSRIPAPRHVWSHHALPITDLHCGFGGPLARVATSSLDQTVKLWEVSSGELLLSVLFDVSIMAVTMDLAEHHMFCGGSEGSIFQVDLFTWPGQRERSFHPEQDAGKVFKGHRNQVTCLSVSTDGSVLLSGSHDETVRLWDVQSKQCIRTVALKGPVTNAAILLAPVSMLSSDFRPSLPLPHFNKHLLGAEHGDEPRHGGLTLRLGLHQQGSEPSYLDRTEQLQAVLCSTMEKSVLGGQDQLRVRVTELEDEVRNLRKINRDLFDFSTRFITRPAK
# UniProt Q6PJI9: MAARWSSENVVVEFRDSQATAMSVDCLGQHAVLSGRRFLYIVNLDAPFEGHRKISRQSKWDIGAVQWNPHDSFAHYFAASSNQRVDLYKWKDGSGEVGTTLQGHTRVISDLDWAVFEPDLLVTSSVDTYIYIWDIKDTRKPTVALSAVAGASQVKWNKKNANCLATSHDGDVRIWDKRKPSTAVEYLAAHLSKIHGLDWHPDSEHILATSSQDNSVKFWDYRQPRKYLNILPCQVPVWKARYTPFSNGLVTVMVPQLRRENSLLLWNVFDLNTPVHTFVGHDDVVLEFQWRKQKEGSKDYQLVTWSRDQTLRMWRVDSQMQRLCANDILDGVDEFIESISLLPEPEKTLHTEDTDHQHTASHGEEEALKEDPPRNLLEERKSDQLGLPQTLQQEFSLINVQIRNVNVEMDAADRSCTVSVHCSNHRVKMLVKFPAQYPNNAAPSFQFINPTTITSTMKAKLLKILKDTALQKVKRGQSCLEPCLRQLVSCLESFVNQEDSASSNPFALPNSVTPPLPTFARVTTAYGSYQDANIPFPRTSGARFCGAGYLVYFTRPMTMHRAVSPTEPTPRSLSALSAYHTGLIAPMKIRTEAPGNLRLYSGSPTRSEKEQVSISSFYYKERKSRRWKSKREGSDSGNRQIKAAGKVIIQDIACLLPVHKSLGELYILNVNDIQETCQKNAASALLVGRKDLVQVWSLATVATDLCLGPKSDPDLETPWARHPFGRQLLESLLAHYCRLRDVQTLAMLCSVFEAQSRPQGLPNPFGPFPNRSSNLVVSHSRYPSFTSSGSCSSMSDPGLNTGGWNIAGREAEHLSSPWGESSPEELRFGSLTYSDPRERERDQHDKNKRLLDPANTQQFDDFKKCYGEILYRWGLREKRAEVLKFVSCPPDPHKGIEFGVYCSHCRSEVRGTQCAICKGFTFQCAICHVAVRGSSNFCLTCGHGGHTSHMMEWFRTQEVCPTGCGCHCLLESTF
# Compound: CC1Cc2ccccc2N1C(=O)C1CCCN(C1)C(=O)CCl (mixture of isomers) [TRIM25 ligand 11 (diastereomer mixture)]
# Test: probe-labelled cysteine peptide fold change vs DMSO (competition) (log2 fold change); higher = less target engagement (more negative = stronger competition)
# Conditions: THP-1, incubation time: 4 h
# 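Further: competitive chemoproteomic profiling in live THP-1 cells with an iodoacetamide desthiobiotin (IA-DTB) probe, comparing probe-labelled peptide intensities in compound-treated cells against DMSO-treated controls.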
Target,probe-labelled cysteine peptide fold change (10 µM),probe-labelled cysteine peptide fold change (50 µM)
WDR70_Q9NW82_430_PLFSASGLPTMFPMTDCCFSPDDK (UniProt Q9NW82),-0.308,0.0887
WDYHV1_Q96HA8_165_DSSGNWREPPPPYPCIETGDSK (UniProt Q96HA8),-0.253,-0.191
WASHC5_Q12768_969_QQIANELNYSCR (UniProt Q12768),0.124,0.12
WDFY1_Q8IWB7_189_LEQNTCSVITTLK (UniProt Q8IWB7),0.462,0.551
WDR33_Q9C0J8_220_FATCSDDGTVR (UniProt Q9C0J8),0.00338,-0.0563
WRN_Q14191_1115_LYSYKPCDK (UniProt Q14191),0.0775,-0.0533
WDHD1_O75717_156_DIFLASASCDGSVR (UniProt O75717),0.0706,0.176
WDFY1_Q8IWB7_287_EEAPQWLESDSCQK (UniProt Q8IWB7),0.277,0.13
WASHC5_Q12768_369_DCNVAIR (UniProt Q12768),0.0168,0.165
WASF2_Q9Y6W5_27_SELECVTNITLANVIR (UniProt Q9Y6W5),-0.0924,-0.21
WDR55_Q9H6Y2_191_LLLTASGDGCLGIFNIK (UniProt Q9H6Y2),-0.00698,0.0857
WARS_P23381_274_GIFGFTDSDCIGK (UniProt P23381),0.00994,-0.0153
WDFY4_Q6ZS81_2283_IQEQLFGELGLWSQGEETKPCSPWELDWR (UniProt Q6ZS81),0.33,-0.324
WDR77_Q9BQA1_172_AHAAQVTCVAASPHK (UniProt Q9BQA1),0.0954,0.187
WDR1_O75083_325_SIQCLTVHK (UniProt O75083),0.0169,0.00756
WDR91_A4D1P6_351_ELFSTTTSQCAEK (UniProt A4D1P6),0.0204,-0.136
WDR43_Q15061_131_VNCIQWHQDSGCLYSCSDDK (UniProt Q15061),0.0562,0.112
WDR37_Q9Y2I8_329+330_TANLYDVETSELVHSLTGHDQELTHCCTHPTQR (UniProt Q9Y2I8),0.047,-0.0726
WDR25_Q64LD2_429_FTCPSLALHPR (UniProt Q64LD2),0.000846,0.0795
WASHC4_Q2M389_659_HLESYEILLDCYDK (UniProt Q2M389),0.138,0.28
WDR81_Q562E7_76_RLPLGPCPR (UniProt Q562E7),0.0121,0.253

Target,probe-labelled cysteine peptide fold change (10 µM),probe-labelled cysteine peptide fold change (50 µM)
WDR4_P57081_227_QLHCCHLASLQELVDPQAPQK (UniProt P57081),0.0145,0.203
WDR7_Q9Y4E6_469_VTCLLYPHQVSAR (UniProt Q9Y4E6),0.0898,-0.00299
WDR6_Q9NNW5_813_AEMHCFSIMVTPDPSTPSR (UniProt Q9NNW5),0.0198,-0.241
WDR1_O75083_170_LATGSDDNCAAFFEGPPFK (UniProt O75083),0.156,0.139
XPC_Q01831_790_KLDIDCVQAITGFDFHGGYSHPVTDGYIVCEEFK (UniProt Q01831),0.111,0.0383
WDFY1_Q8IWB7_290_CEQPFFWNIK (UniProt Q8IWB7),0.022,-0.00435
WDFY4_Q6ZS81_2352_EAEGEPDEVGVDCTQLTFFPALHESLHSEDFLELCR (UniProt Q6ZS81),0.294,-0.00897
WDR82_Q6UXN9_195_TCEWTGLK (UniProt Q6UXN9),0.0195,0.313
XAB2_Q9HCS7_98_CVTDPAYEDVNNCHER (UniProt Q9HCS7),0.0769,0.341
WDFY4_Q6ZS81_545_VSTPGVQDPERELTCVMLR (UniProt Q6ZS81),-0.026,0.167
WDR18_Q9BV38_384_LGLHQQGSEPSYLDRTEQLQAVLCSTMEK (UniProt Q9BV38),-0.0296,-0.059
WDR7_Q9Y4E6-2_959_QGWSQLAAMHCVMLPDLLGLDK (UniProt Q9Y4E6),-0.0424,-0.0849
WDR43_Q15061_307_DGQVHLFEHILNGYCK (UniProt Q15061),0.152,0.108
WDR26_Q9H7D7_577_KYQGVTQGFYTIHSCFGGHNEDFIASGSEDHK (UniProt Q9H7D7),0.236,0.015
WDR47_O94967_672_GSIYCVAWSPCGQLLATGSNDK (UniProt O94967),-0.126,-0.567
WDR3_Q9UNX4_70+72_QEVTCLCPSPDGLHLAVGYEDGSIR (UniProt Q9UNX4),0.208,0.0368
WDR12_Q9GZL7_97_YTAPQPEQCMFHDDWISSIK (UniProt Q9GZL7),0.171,-0.00138
WDR92_Q96MX6_339_GLCVCSSFDQTVR (UniProt Q96MX6),0.0751,0.138
WDR37_Q9Y2I8_330_TANLYDVETSELVHSLTGHDQELTHCCTHPTQR (UniProt Q9Y2I8),0.247,0.231
WDR76_Q9H967_596_VHSFGGEYLVSVCSINAMHPTR (UniProt Q9H967),-0.0684,-0.0447
WDR59_Q6PJI9_233_YLNILPCQVPVWK (UniProt Q6PJI9),-0.0454,0.137

Target,probe-labelled cysteine peptide fold change (10 µM),probe-labelled cysteine peptide fold change (50 µM)
WDFY4_Q6ZS81_582_IFLDDECYR (UniProt Q6ZS81),0.298,0.0279
WASHC5_Q12768_11_MLDFLAENNLCGQAILR (UniProt Q12768),0.105,0.038
WWP2_O00308_186_HQPPSTNCFGGR (UniProt O00308),-0.035,-0.168
WDR26_Q9H7D7_238_CELTPLK (UniProt Q9H7D7),-0.0356,-0.0732
WTAP_Q15007_90_EQEMQECTTQIQYLK (UniProt Q15007),-0.25,-0.161
XPNPEP1_Q9NQW7_316_CCMPYTPICIAK (UniProt Q9NQW7),0.0278,0.114
WDR6_Q9NNW5_830_LACHVMHLSSHR (UniProt Q9NNW5),0.0252,0.296
XPC_Q01831_536_SIAGIDQWLEVFCEQEEK (UniProt Q01831),-0.0149,0.206
WRN_Q14191_1070_ANTESQSLILQANEELCPK (UniProt Q14191),0.141,-0.0363
WDR70_Q9NW82_338_KVIPTTCTYSR (UniProt Q9NW82),-0.0141,0.375
WBP4_O75554_13_KFCDYCK (UniProt O75554),-0.152,-0.3
WDR26_Q9H7D7_153_LIGQHLNGLGLNQTVDLLMQESGCR (UniProt Q9H7D7),-0.116,-0.185
WDR37_Q9Y2I8_417_INVCVGQK (UniProt Q9Y2I8),-0.0568,-0.0133
WDFY3_Q8IZQ1_3027_EPVGQIVCTDK (UniProt Q8IZQ1),0.0645,0.00839
WASHC5_Q12768_21_IVSCGNAIIAELLR (UniProt Q12768),0.0148,0.243
WDR3_Q9UNX4_183_WWDLDTQHCFK (UniProt Q9UNX4),0.0931,0.173
WIPI2_Q9Y4P8_430_LAYTDDLGAVGGACLEDEASALRLDEDSEHPPMILR (UniProt Q9Y4P8),-0.0733,-0.242
WDR7_Q9Y4E6_326_ELLICPPVTR (UniProt Q9Y4E6),0.0845,0.185
WDHD1_O75717_781_CVELADLMTQNAVNLAIK (UniProt O75717),0.0994,0.0632
WDR75_Q8IWA0_451_INMPHEDCITALCFCNAEK (UniProt Q8IWA0),0.027,0.0972
WDR59_Q6PJI9_26_DSQATAMSVDCLGQHAVLSGR (UniProt Q6PJI9),0.188,0.121

# Given with tabs: part of the list above
Target	probe-labelled cysteine peptide fold change (10 µM)	probe-labelled cysteine peptide fold change (50 µM)
WDR70_Q9NW82_338_KVIPTTCTYSR (UniProt Q9NW82)	-0.0141	0.375
WBP4_O75554_13_KFCDYCK (UniProt O75554)	-0.152	-0.3
WDFY3_Q8IZQ1_3027_EPVGQIVCTDK (UniProt Q8IZQ1)	0.0645	0.00839
WDR3_Q9UNX4_183_WWDLDTQHCFK (UniProt Q9UNX4)	0.0931	0.173

# Carrying on.

Target,probe-labelled cysteine peptide fold change (10 µM),probe-labelled cysteine peptide fold change (50 µM)
WDR62_O43379_376_KAEAVYPDTVALTFDPIHQWLSCVYK (UniProt O43379),0.151,0.00351
WDR7_Q9Y4E6_109_LACTHTGIQFYQFSVGNQR (UniProt Q9Y4E6),0.0367,0.174
WDR91_A4D1P6_704_VLESCLSLGGHR (UniProt A4D1P6),0.135,0.0594
WDR44_Q5JSH3_701_LITAANFCQNGK (UniProt Q5JSH3),0.117,0.132
WDR34_Q96EX3_529_EAEDLDCLAAEVAA (UniProt Q96EX3),0.164,-0.202
WAPL_Q7Z5K2_964_TGEQDGLIGTALNCVLQVPK (UniProt Q7Z5K2),0.28,0.0904
XIAP_P98170_351_GQEYINNIHLTHSLEECLVR (UniProt P98170),0.0904,-0.106
XAB2_Q9HCS7_86+98_CVTDPAYEDVNNCHER (UniProt Q9HCS7),0.0663,-0.16
XPC_Q01831_558_WVCVDCVHGVVGQPLTCYK (UniProt Q01831),-0.061,0.0592
WDFY4_Q6ZS81_1665_FRDGLCAGSWVER (UniProt Q6ZS81),-0.154,-0.0201
WDR81_Q562E7_215_GSPACPSLLR (UniProt Q562E7),-0.15,-0.158
WDR18_Q9BV38_384_TEQLQAVLCSTMEK (UniProt Q9BV38),0.0584,-0.176
WNK3_Q9BYP7_278_CDNIFITGPTGSVK (UniProt Q9BYP7),-0.0413,-0.0265
WDR36_Q8NI36_311_TDGHPVMAAGSPCGHIGLWDLEDKK (UniProt Q8NI36),0.0484,-0.132
WDR91_A4D1P6_246_LGDSELAMVCSQR (UniProt A4D1P6),-0.0616,-0.273
WDR47_O94967_367_SLMLENTECHSIYEESPER (UniProt O94967),0.181,0.126
WARS_P23381_394_QFGGNCDVDVSFMYLTFFLEDDDKLEQIRK (UniProt P23381),-0.0941,0.0643
WDR48_Q8TAF3_366_GGASIIQCHILNDKR (UniProt Q8TAF3),-0.0025,0.0541
WDR92_Q96MX6_213_NGVCSLEFDRK (UniProt Q96MX6),0.00871,0.0922
WDFY4_Q6ZS81_2251_KCGNIK (UniProt Q6ZS81),-0.179,-0.324

# From the supplement of paper PMC12067093, “Discovery and optimisation of a covalent ligand for TRIM25 and its application to targeted protein ubiquitination” (Chemical Science, 2025)
